In PubChem BioAssay AID1307 (SRMLSC, 2008):
In all, about 1,200 compounds went through this assay and fewer than 10 were called active.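 The calls were made as follows: active = inhibition reaching a set limit at one or more tested concentrations; inactive = inhibition under that limit at every dose.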 This is one part of the list. Entries with a potency or affinity are not part of this list.

test: yeast RAM network inhibitors, dose response, S. cerevisiae (AID 1307);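 also: 0% = DMSO vehicle wells and 100% = 10 µM 1-NA-PP1 control; higher inhibition means more yeast growth since RAM block rescues cells from 5-FOA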; details: S. cerevisiae RAM network URA3 reporter, 5-FOA growth OD615, stronger effect = higher value, yeast express analog-sensitive mutant Cbk1 kinase; at 100 µM unless noted

Max inhibition, inactive:
CCOC(=O)c1c(NC(=O)CSc2nnc(Cc3ccccc3)o2)sc(C)c1C 4.8% [at 50 µM], Oc1c(Cl)cc(Cl)c(Cl)c1Cc1c(O)c(Cl)cc(Cl)c1Cl 3.42% [at 0.391 µM], Cc1ccc(C(=O)/C=C/c2cn(CC(O)CN3CCOCC3)c3ccccc23)cc1 (stereo not drawn) 4.08% [at 50 µM], CCCCC(=O)O[C@H]1CC[C@H]2[C@@H]3CCc4cc(O)ccc4[C@H]3CC[C@]12C 4.49%, C=CCO/N=C(/C)c1c(O)c(CC)c(-c2ccccc2)n(-c2ccccc2)c1=O 2.56% [at 0.391 µM], Cc1ccc(NN=C2c3ccccc3-c3ccccc32)cc1 6.62% [at 50 µM], COC(=O)CCSc1cc([N+](=O)[O-])cc2c1c(C1OCCO1)nn2-c1ccccc1 3.76%, O=S(=O)(c1ccccc1)N1CCN=C1SCc1ccc(Cl)c(Cl)c1 1.93% [at 0.782 µM], Cc1ccc(S(=O)(=O)N2CCC(=O)N(C(COCc3cccc(C)c3)Cc3ccccc3)CC2)cc1 (stereo not drawn) 1.88%, Cc1ccc(N=Nc2c(C)[nH]n(-c3ccccc3)c2=O)cc1 1.92% [at 50 µM], O=C(COC(=O)CC(c1ccccc1)c1ccccc1)NCc1ccc(Cl)cc1 1.55% [at 0.196 µM], CCOC(=O)C1=C(N)OC2=C(C(=O)CC(C)(C)C2)C1c1ccc(C)s1 (stereo not drawn) 2.43% [at 0.196 µM], C=C(C)C1CC=C(C)/C(=N\NC(=S)Nc2ccc(C)cc2)C1 (stereo not drawn) 2.06% [at 50 µM], C=CCSc1nnc(CCCCCN2C(=O)c3cccc4cccc(c34)C2=O)o1 6.81%, CCCCN(CCCC)S(=O)(=O)c1ccc(NC(=O)c2cccs2)cc1 1.28% [at 25 µM], Cc1ccc(NC(=O)CNC(=O)c2cccs2)cc1S(=O)(=O)Nc1ccc(Cl)cc1 6.32%, CCN(CC)c1nc(SCCOC(=O)Nc2ccccc2)nc(N(CC)CC)n1 9.53%, CC(C)(C)OC(=O)NCCCCCNC(=O)c1[nH]cnc1C(=O)N[C@@H](Cc1ccccc1)C(=O)OCc1ccccc1 6.61%, CCOC(=O)c1ccc(NC(=O)Nc2ccc3c4c(cccc24)C(=O)N3CC)cc1 3.19%, CCSc1ccc(-c2nn(-c3ccccc3)cc2/C=C(/C#N)C(=O)NCCCOC)cc1 13%, O=C(Cn1cc(C(=O)c2ccco2)c2ccccc21)NC1CCCCC1 3.76% [at 0.391 µM], CCCC(=O)C1=C(O)C(C(=O)OC)C(C)(C)CC1=Nc1cccc2ccccc12 (stereo not drawn) 2.93%, COc1ccc(/C=C2\SC(=S)N(C(Cc3ccccc3)C(=O)O)C2=O)cc1 (stereo not drawn) 4.2% [at 50 µM], CCc1ccc(NC(=O)Cn2c(SC)nc3ccccc32)cc1 1.82% [at 0.196 µM], CC(C)SCCCCOc1ccc2ccccc2c1 3.86% [at 12.5 µM], CCOc1ccc(NC(=O)CSc2nnc(-c3ccccc3Cl)n2Cc2ccco2)cc1 1.32% [at 0.782 µM], Clc1ccc(-c2nnc(CSc3nnc(-c4cccs4)o3)o2)cc1 2.52% [at 3.125 µM], CC(=O)N(CCC(c1ccccc1)c1ccco1)Cc1cccs1 (stereo not drawn) 1.77% [at 0.391 µM], COc1ccccc1/C=C(/C(=O)OCC(=O)Nc1ccccc1C(C)C)c1ccccc1 1.89%, O=C1c2ccccc2C(=O)N1CCCCN(C(=O)c1ccc(Cl)s1)c1ccc(Cl)cc1 2.52% [at 50 µM], COc1cccc(CSc2nc3sc(C)c(C)c3c(=O)n2Cc2ccco2)c1 5.58% [at 50 µM], CCCCN1C(=O)/C(=C/C=C2/CC(C)(C)CN2C)SC1=S 2.79% [at 50 µM], Cc1ccc(N(CCCCN2C(=O)c3ccccc3C2=O)C(=O)c2cccs2)cc1 4.25%, CCOC(=O)C1=C(Cc2ccc(OC)cc2)C(=O)c2ccccc2C1=O 3.39% [at 0.391 µM], Cc1ccc(S(=O)(=O)NCc2ccc3c(c2)cc(C)n3C)cc1 5.29%, N#Cc1nc(Cc2cccc3ccccc23)oc1N1CCCCC1 2.73% [at 3.125 µM], O=S(=O)(Nc1ccc(N=Nc2ccc(O)c3ccccc23)cc1)c1ccccc1 1.77%, O=C(CSc1nc2ccccc2s1)CSc1nc2ccccc2s1 5.31%, Cc1ccccc1OCC(O)Cn1c2ccccc2c2ccccc21 (stereo not drawn) 6.24%, COc1ccc(CCNC(=O)c2ccc(Cl)c(S(=O)(=O)N(C)c3ccccc3)c2)cc1 2.74% [at 6.25 µM], N#Cc1nc(-c2ccc(OCc3ccccc3)cc2)oc1NCc1ccco1 18.3%, CCN1C(=O)C(CC(=O)Nc2ccc(OC)cc2)N(CCc2ccc(F)cc2)C1=S (stereo not drawn) 2.82%, CCCCOc1ccc(C(=O)N/C(=C\c2cccc([N+](=O)[O-])c2)C(=O)OCc2ccco2)cc1 4.99% [at 50 µM], Cc1ccc(Cc2nnc3n(-c4cccc(C)c4)nc(C(=O)c4ccccc4)n3c2=O)cc1 3.36% [at 50 µM], CC(=O)c1ccc(OC(=O)CCN2c3ccccc3Sc3ccccc32)cc1 2.26% [at 0.196 µM], Cc1[nH]c2ccccc2c1/C=C/c1nc2ccccc2c(=O)n1-c1ccc([N+](=O)[O-])cc1 6.44%, COc1ccc(C(Cl)=C(c2ccc(OC)cc2)c2ccc(OC)cc2)cc1 5.76% [at 50 µM], COc1ccccc1Nc1nc2c(C)cccc2cc1C#N 4.2% [at 50 µM], CS(=O)(=O)Nc1ccc(C(=O)Nc2ccccc2Sc2ccccc2)cc1 6.21%, CCc1cc2c(Sc3nc4ccccc4s3)ncnc2s1 1.8% [at 50 µM], COc1ccc(OC)c(/C=C/C(=O)OCC(=O)Nc2cccc(Oc3ccccc3)c2)c1 4.47%, COc1ccc(CN2C(=O)c3ccccc3C(/C=N\OCc3ccc(C)cc3)C2=O)cc1 (stereo not drawn) 3.05% [at 0.782 µM], CC(CCc1ccccc1)NC(=O)CNC(=S)N(Cc1cccs1)C1CCCC1 (stereo not drawn) 3.28%, CCC(=O)Nc1ccccc1C(=O)OCc1ccc(C(=O)c2ccccc2)cc1 1.55% [at 0.196 µM], Nc1ccc(C(=O)c2cccs2)cc1[N+](=O)[O-] 6.93% [at 50 µM], OC(COCC(F)(F)C(F)(F)C(F)(F)C(F)F)Cn1c2ccc(Cl)cc2c2cc(Cl)ccc21 (stereo not drawn) 4.25% [at 0.391 µM], Cc1cc(Br)ccc1SCC(=O)OCC(=O)NC1CCCC1 4.08% [at 0.196 µM], COC(=O)CSc1nc(N2CCCCC2)c2c(c1C#N)CCCC2 2.41% [at 0.782 µM], Cc1cc(C)c(C)c(S(=O)(=O)N2CCC(C(=O)OCC(=O)N3c4ccccc4NC(=O)C3(C)C)CC2)c1C 4.49%, Cc1cc(C)c(NC(=O)/C(=C/c2ccccc2)c2ccccc2)c(C)c1 5.18%, Cc1cc(C(=O)COc2ccc(Cl)cc2Br)c(C)n1C 1.08% [at 0.196 µM], CCN(CC)S(=O)(=O)c1cccc(-c2nnc(SCCOc3ccccc3)o2)c1 3.36% [at 25 µM], CCOC(=O)Cc1csc(NC(=O)c2c(O)c3ccccc3n(CC(C)C)c2=O)n1 2.71%, CCCCn1c(SCC(=O)Nc2ccccc2C(F)(F)F)nc2ccsc2c1=O 2.91% [at 25 µM], Cc1oc2ccc(OC(=O)COc3c(F)c(F)c(F)c(F)c3F)cc2c1C(=O)OC(C)C 2.86% [at 6.25 µM], Brc1ccccc1-c1nnc2sc(Cc3ccccc3)nn12 2.46% [at 0.782 µM], O=C(c1cnc(-c2ccc(Cl)cc2)s1)c1ccc(Cl)cc1Cl 3.52% [at 50 µM], CCCCCCCCNC(=O)c1cccnc1SCC(=O)Nc1ccccc1OC 1.89% [at 1.563 µM], CN(c1cccc(NC(=O)CN(c2ccc(F)cc2)S(C)(=O)=O)c1)S(C)(=O)=O 2.38% [at 0.196 µM], COc1ccc(O[C@H]2C=C[C@@H](c3ccccc3)O[C@@H]2COC(=O)CC/C(C)=N/O[C@@H](C)c2cc(-c3c(C)cc(C)cc3C)no2)cc1 4.87% [at 25 µM], CC(C)Oc1ccccc1OCCCCn1cnc2ccccc2c1=O 2.35% [at 6.25 µM], O=C(OCc1ccccc1)c1cccc(-c2nnc(-c3ccccc3)o2)c1 3.33% [at 3.125 µM], COc1cccc(/C=C/C(=O)OCC(=O)Nc2ccccc2Sc2ccccc2)c1 4.22%, Cc1ccc(/C=C/C(=O)Nc2ccc(Oc3ccccc3)cc2)o1 8%, COc1ccc(C)cc1S(=O)(=O)N(CC(=O)NCc1ccc(Cl)cc1)Cc1ccccc1 2.92% [at 1.563 µM], Cc1ccc(Cl)cc1N1CCN(C(=S)NCCc2ccccc2)CC1 3.33% [at 25 µM], CCN(CC)S(=O)(=O)c1ccc(NCC2COc3ccccc3O2)c([N+](=O)[O-])c1 (stereo not drawn) 2.77% [at 1.563 µM], Cc1ccc(/C=C/C2=NN(Cc3ccc(Cl)c(Cl)c3)C(=O)CC2)cc1 3.29%
